The record followed here is article PMC12002642.

These are yes or no findings as the source states them, for the method shown. Binding seen in cells or lysates may run through a third protein. A yes stands for co-enrichment or nearness to the bait. Other partners may have been found.

The chains are these.
B1: Dri1, endogenous (protein, UniProt B6K2B3 1-686)
chain: MALPEFVGDLVVLHFETNLDDHGLSIGRAPCEVREICWVILDGKTLEKQHCGSCAIRDESIKTGVYTSVESFREAVYTLDDVLQRLLSFENRNFTFVVMNARELRVLLPKQAKDHGIVLPSYLRYPRLFDLSNEYAKWQVRSGVVPPYTITLSHIFGKLDVDSLPPLADSASVLGISADDLAYVTKGLTQCWRLANAVTLLLMRASRDSQSLSPAGTPTKSGTSSSLAVLTRPIDCRADLRVFLAERSAVVHIAGLANDTTQAELENWFVNHGLRSVALWTLKTPDQYKSTGTGYVVFSSHKDATDALNLNGSCFGDRMLEITPSSPRTLERASDILTSFPSSKNRPRPGDWNCPMCGFSNFQRRTSCFRCSFPGSSNLSQQNLSGSLGHDQFLVGSYGNSPHSNGGVANAGYHVGSFHSASHTSLQPSSMPNGVSGSGVHSSNSRNSFGGNVPFRAGDWKCGSGGCGYHNFAKNVCCLRCGASRATASVVADSSGVAINPATPHGSFSNFSSSPFSGGSSQNNFLLSSNVYPYSQMSLNQLMKSGGGHSASSFGVQTSRFEEYSSRMKESPARAYNTSDQGDWLCECGFTNFRRRTNCLRCNAPHATSHPNMPASLPSNFGSFFGNGQHPFSAREDSNPNFMGGLSKHLAGISLKEEPAFQVSPSVFPSQKRASVAELSANGRLL
B2: Rmn1 (RBM26·27 ortholog), endogenous (protein, UniProt B6K5G4 1-589)
chain: MALLRHESAEEEVRQLCYSQLEDFLRQETIPFVDKVFDVLKERSYLEKEMKSPKGHLSTAATIPVSAPLAEKGPVAASNERPNAANAQANAPPFGGHQHPTLPAGFMPNPSGPPFPFPLPMLNPAAAAAAAAAAAAAAASGEFSPFQGSNNSSQASPMDIASPASPFPPPFQPRGSRRRCRDYETKGFCLRGDKCMFEHSSQPVRVSSPNHQNFAYDHRAPSRPIQHYSPRYIKGPSRDPSSTILQMRNVPPEYLDEQRIREFFEKFGPLEKVELHQTQSYAILHFKDHASAEAAWGSPEPIFNNRFIKVFWQATNTPSRGPPGQRRMTSSRVSHYTPYSRPQPRGEVVQEEDPVVTAQSPDFLKRVEEKQRAFEERRKKLEENKRKLEEINRKKQELALRQLKEQQVLMEKLKSADPASQSKVDILKTQLALLKAEADSLGIQVGSQNSPTPSTTTATSKPTVSYSHHPNASVGYSHAPARGRGGRFSFASMSLDNRPRRIQVNNVSPDKNELLLQHLLSVGEYESVTEPEPNTRMVNFRSRRAAEQFYDNVQTIDGLRDISLQWIPNGVAATQPSENQTDATMGNES
B3: Red5 (ZC3H3 ortholog), endogenous (protein, UniProt B6JVP1 1-380)
chain: MAGTNSEEQKLLEQIASLAGAINKYKYSQEQIHHQSAQKPDGANSTNWRKRKLSHWSTSRNQTLVNNPPPSPSIKGAAAKTQDDVSSMSEDATEASMFVARKDRHMQLIHKSIYEQDAQARQASMETARAKLNEKRKAVAEKKTQQKLTDPNNHLLTIQELPFIINDKDPKFIECMDTLAQLPKHIYHEGRAYVLMNRSMYKFVGTSPYSVYCRYYNMVGYCAKGGKCMYVHDPAHKYVCPRFLSGNCPNGEQCSLSHDRDEKRTPACRYFLKGKCTNPVCRYAHVHYNESVPVCPDFSEYGMCENGLHCKMKHILKCTEYALKGACHNAKCRLYHPPKELESTEKKEGAVSAEKMQGEQKQDSESSSTASGATPIFISL
B4: Ppn1 (PPP1R10 ortholog, CPSF component), endogenous (protein, UniProt B6K4E4 1-783)
chain: MNGARDFSGLNDRNKPLQNDGNVDNRNVFAADYNNHRMPEMTLPLPSNYDSRIMGFYPAYNQNQAYMQPHAGFANQMHTEYGYFQPHVNNLLSNDASMHHTGQYLQPSVMEVDYRQQPPRQSYPYQPPTISNFQHASLPFYSSNTNAAEYANAARSLNPIQNPVTLPPLTHKEYPPSYYQPYVQNNMSAEETQNVLNRQPPQMHAGTPMLVETTPSYASSPNMQPAVLNQTVADVPSVAPSSSQKLPLKTPVKPKAPLSPAERLRHELNECLDPFNTSRAPRDCAAVLVNFMGSIETDEQKLIFLEITRDKGLDTIYNELVDGSRRIFLPKLRNWFVSAIRSKHDKLTHVILQVLTRLPLNPEKLAEVKFGKAILLVGKKSTNSIIRQYAENLSGIAEKSLLLEQRKDTKAAPVKPETTKTAASATSRPSHKSISQKPPVTTTKKVTSVSNTSFFKNLSSAAKQSAASGSKAPMASSASAKSSTPNTPLSAIMAGLNRGNQDSQTASSTSSSTKVGSDLKSLTEQITKGKEELPSFRKRSAKSDSTTGKPTKVSKTTSESTVKRKKKSVSWRPDNDLVQVRIIESLEDDKDLAKGVHHHYGSARDLDRHEARVAFGAKVEDDVEEEQTWYEPVVITFVIKDELHTRGFKTGAEKLNPTPESQWETERESSTKPSTTSEKVLSESFIRESSSPSTPAEIPLPAANEKETPQKDTSRSPSSPPRPVETRKDVNIPSQQPYSAVSAQHVSSILAALTNASAQAPSNRADDKNNASFLAQLMSTVNR

The experiment has as its target T1, Pab2-TurboID (S. japonicus) (UniProt B6K794).
T1 sequence: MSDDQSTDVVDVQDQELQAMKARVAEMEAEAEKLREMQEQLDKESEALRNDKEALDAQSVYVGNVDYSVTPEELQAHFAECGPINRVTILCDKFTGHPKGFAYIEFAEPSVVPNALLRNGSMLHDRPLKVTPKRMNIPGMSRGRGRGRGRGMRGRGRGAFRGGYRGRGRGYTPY
The experiment is described as follows: proximity labelling; TurboID: S. japonicus strain expressing Pab2-TurboID against parental strains; lysis in RIPA buffer, biotinylated proteins purified on streptavidin magnetic beads, LC-MS/MS.
With B1, the binding result is “binds”.

Regarding B2, the binding entry is on record as “binds”.

Take B3: the binding entry was “binds”.

On to B4, for which the binding entry is reported as “binds”.
